PubChem BioAssay AID743454 | Peter MacCallum Cancer Centre, 2014
The deposit covers about 18,000 reagents; this is an unselected part. Of all reagents, 450 (2.5%) were called active. 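Single biological run; no consistent viability z cut-off exists, so the class columns, not z-scores, define the calls.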 No sequences are given here.

Screen: 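Search for knock-downs that restore vorinostat killing in resistant colon cancer cells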 (primary screen)
Cells: human HCT116-VR colon cancer cells, selected for vorinostat resistance
Knock-down reagent: siRNA pool against human genes, 40 nM siRNA pool
Duration: vorinostat for 24 h, read-out about 72 h after transfection
Treatment: vorinostat at 2.5 µM final
Read-out: 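Cell viability by CellTiter-Fluor and caspase 3/7 activity by luminescence, each scaled to mock wells per plate, duplicates averaged, then robust z-scored over all plates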
Direction: viability robust z-score: higher = more viable cells than screen typical; caspase robust z-score: higher = more caspase 3/7 activity than screen typical
Hit rule: 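Hits are knock-downs in viability class RV1/RV2 or caspase class CA1/CA2, excluding ones that killed cells in the no-drug cell-count arm; hits then retested with single siRNAs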

POLA1
- viability hit class: no change
- caspase hit class: no change
- viability robust z-score: 1.11
- caspase robust z-score: 0.6
- Outcome: inactive

RAB26
- viability hit class: no change
- caspase hit class: no change
- viability robust z-score: -1.11
- caspase robust z-score: 3.35
- Outcome: inactive

FLG
- viability hit class: no change
- caspase hit class: no change
- viability robust z-score: -1.33
- caspase robust z-score: 0.36
- Outcome: inactive

PSMD4
- viability hit class: no change
- caspase hit class: CA2 (caspase activation)
- viability robust z-score: 0.05
- caspase robust z-score: 8.03
- Outcome: active

ANKMY2
- viability hit class: no change
- caspase hit class: no change
- viability robust z-score: -0.51
- caspase robust z-score: -0.58
- Outcome: inactive

MRPL34
- viability hit class: no change
- caspase hit class: no change
- viability robust z-score: -2.55
- caspase robust z-score: 0.95
- Outcome: inactive

ZCCHC7
- viability hit class: no change
- caspase hit class: no change
- viability robust z-score: 0.08
- caspase robust z-score: 4.68
- Outcome: inactive

ERH
- viability hit class: RV2 (reduced viability)
- caspase hit class: no change
- viability robust z-score: -3.6
- caspase robust z-score: -0.52
- Outcome: active

SOWAHB
- viability hit class: no change
- caspase hit class: CA2 (caspase activation)
- viability robust z-score: -2.68
- caspase robust z-score: 7.17
- Outcome: active

Next part, starting with the last 2 of the part before.
ERH
- viability hit class: RV2 (reduced viability)
- caspase hit class: no change
- viability robust z-score: -3.6
- caspase robust z-score: -0.52
- Outcome: active

SOWAHB
- viability hit class: no change
- caspase hit class: CA2 (caspase activation)
- viability robust z-score: -2.68
- caspase robust z-score: 7.17
- Outcome: active

MC5R
- viability hit class: no change
- caspase hit class: no change
- viability robust z-score: 0.41
- caspase robust z-score: -0.63
- Outcome: inactive

DCAF5
- viability hit class: no change
- caspase hit class: no change
- viability robust z-score: 0.13
- caspase robust z-score: -0.78
- Outcome: inactive

HBB
- viability hit class: no change
- caspase hit class: no change
- viability robust z-score: -0.58
- caspase robust z-score: 0.92
- Outcome: inactive

IFI6
- viability hit class: no change
- caspase hit class: no change
- viability robust z-score: 0.96
- caspase robust z-score: 2.16
- Outcome: inactive

TRIO
- viability hit class: no change
- caspase hit class: no change
- viability robust z-score: 2.92
- caspase robust z-score: 0.15
- Outcome: inactive

PEDS1
- viability hit class: no change
- caspase hit class: no change
- viability robust z-score: 0.74
- caspase robust z-score: -0.32
- Outcome: inactive

PRAMEF8
- viability hit class: no change
- caspase hit class: no change
- viability robust z-score: 0.78
- caspase robust z-score: 1.31
- Outcome: inactive

PACSIN3
- viability hit class: no change
- caspase hit class: no change
- viability robust z-score: 1.78
- caspase robust z-score: -0.99
- Outcome: inactive

DPPA2
- viability hit class: no change
- caspase hit class: no change
- viability robust z-score: 0.12
- caspase robust z-score: 0.05
- Outcome: inactive

BORCS7
- viability hit class: no change
- caspase hit class: no change
- viability robust z-score: -1.82
- caspase robust z-score: -0.91
- Outcome: inactive

KRTAP5-2
- viability hit class: no change
- caspase hit class: no change
- viability robust z-score: 0.75
- caspase robust z-score: -0.22
- Outcome: inactive

SETDB2
- viability hit class: no change
- caspase hit class: no change
- viability robust z-score: 0.71
- caspase robust z-score: 0.64
- Outcome: inactive
